# From the supplement of paper PMC10032668
# By UniProt entry, the sequences of proteins in these tests, tags left out.
# DMD, P11532, UniProt P11532, whole entry: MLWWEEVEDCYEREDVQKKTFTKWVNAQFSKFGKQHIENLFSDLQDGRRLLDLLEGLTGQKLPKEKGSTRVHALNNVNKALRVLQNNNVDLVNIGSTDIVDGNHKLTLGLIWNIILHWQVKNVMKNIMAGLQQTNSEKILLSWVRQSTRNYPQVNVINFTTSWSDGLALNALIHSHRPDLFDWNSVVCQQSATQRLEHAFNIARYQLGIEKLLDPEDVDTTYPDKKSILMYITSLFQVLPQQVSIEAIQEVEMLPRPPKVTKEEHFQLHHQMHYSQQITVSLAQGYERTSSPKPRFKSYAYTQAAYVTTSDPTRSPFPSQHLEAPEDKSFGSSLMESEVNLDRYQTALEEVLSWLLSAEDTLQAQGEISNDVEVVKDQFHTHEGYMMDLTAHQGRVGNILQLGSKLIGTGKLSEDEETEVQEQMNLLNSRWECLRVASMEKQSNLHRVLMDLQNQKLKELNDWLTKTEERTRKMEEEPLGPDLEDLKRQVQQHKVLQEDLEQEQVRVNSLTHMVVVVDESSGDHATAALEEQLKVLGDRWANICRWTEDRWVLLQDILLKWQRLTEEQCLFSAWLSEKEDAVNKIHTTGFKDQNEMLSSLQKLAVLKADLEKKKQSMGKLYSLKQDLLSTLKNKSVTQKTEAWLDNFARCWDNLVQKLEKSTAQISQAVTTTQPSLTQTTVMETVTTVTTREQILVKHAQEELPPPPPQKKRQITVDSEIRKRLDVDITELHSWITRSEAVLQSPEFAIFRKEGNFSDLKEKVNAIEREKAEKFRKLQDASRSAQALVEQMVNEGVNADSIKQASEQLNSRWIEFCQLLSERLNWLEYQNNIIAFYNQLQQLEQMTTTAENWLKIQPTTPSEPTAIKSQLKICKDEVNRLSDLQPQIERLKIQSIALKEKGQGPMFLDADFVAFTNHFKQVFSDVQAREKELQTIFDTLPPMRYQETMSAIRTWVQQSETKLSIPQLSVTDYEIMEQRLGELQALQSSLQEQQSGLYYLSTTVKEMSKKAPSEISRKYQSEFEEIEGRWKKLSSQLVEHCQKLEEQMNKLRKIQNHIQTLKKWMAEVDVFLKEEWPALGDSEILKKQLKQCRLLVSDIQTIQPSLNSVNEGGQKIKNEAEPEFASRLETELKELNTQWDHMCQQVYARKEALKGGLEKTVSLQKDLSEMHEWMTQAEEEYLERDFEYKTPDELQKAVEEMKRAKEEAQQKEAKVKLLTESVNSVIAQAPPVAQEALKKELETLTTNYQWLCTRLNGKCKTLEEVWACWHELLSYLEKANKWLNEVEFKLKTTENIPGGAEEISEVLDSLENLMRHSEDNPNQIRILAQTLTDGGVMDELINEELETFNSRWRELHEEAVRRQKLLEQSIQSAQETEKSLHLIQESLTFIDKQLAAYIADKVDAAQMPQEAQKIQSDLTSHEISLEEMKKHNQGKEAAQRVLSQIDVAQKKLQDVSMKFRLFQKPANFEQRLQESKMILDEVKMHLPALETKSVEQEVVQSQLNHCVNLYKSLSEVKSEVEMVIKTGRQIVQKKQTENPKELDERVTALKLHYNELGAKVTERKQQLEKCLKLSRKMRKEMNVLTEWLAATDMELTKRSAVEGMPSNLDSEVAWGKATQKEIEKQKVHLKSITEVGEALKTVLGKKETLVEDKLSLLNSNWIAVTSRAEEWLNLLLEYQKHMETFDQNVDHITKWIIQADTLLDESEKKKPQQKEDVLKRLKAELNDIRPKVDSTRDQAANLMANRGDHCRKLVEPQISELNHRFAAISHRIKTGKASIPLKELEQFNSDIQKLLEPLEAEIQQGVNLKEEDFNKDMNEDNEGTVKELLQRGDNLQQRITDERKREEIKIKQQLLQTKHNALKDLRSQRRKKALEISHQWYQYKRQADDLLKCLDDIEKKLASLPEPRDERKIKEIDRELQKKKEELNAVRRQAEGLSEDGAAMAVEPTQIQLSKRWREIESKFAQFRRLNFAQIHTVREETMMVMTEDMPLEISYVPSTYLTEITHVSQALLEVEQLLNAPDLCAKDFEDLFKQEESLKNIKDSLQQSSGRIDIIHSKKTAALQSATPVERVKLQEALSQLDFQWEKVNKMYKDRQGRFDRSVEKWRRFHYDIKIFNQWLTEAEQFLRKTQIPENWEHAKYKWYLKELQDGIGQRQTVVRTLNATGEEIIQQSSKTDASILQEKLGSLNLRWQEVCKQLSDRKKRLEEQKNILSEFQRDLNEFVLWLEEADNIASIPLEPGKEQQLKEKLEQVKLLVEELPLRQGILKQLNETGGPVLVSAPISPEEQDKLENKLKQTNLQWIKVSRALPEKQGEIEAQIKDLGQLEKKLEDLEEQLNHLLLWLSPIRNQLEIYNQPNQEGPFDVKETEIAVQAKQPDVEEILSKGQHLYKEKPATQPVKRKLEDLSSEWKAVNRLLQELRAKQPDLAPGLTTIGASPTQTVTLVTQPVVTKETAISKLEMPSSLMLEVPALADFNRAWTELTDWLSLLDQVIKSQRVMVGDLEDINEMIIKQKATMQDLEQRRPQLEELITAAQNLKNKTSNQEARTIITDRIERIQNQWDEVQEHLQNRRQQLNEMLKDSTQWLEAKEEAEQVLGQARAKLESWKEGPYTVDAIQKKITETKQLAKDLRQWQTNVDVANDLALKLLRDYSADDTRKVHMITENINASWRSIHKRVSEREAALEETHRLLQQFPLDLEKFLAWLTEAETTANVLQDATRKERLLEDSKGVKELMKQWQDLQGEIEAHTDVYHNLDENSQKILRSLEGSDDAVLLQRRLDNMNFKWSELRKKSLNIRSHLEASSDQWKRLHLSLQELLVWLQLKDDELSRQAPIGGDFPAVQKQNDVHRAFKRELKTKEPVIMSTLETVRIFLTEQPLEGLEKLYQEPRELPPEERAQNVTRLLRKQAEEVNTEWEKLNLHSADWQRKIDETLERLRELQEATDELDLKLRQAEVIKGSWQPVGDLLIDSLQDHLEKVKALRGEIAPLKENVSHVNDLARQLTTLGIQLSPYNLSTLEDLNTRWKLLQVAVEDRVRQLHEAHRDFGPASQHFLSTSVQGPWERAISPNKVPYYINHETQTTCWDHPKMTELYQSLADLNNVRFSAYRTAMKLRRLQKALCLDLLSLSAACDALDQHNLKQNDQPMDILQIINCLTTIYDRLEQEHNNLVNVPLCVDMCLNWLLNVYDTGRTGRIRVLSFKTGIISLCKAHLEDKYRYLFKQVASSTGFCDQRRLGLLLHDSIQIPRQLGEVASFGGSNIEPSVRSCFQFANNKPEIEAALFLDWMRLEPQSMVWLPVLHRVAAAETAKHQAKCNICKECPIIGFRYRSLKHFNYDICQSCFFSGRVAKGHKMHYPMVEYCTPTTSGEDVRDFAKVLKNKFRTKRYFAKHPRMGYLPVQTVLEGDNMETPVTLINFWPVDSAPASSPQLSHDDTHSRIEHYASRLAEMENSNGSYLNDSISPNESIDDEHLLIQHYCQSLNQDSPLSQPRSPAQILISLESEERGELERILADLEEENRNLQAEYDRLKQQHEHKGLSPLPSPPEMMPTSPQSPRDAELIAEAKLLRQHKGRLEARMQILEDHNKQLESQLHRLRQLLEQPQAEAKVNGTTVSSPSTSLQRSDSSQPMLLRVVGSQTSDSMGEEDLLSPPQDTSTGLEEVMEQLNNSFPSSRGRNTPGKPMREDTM
# NUP153, P49790, UniProt P49790, whole entry: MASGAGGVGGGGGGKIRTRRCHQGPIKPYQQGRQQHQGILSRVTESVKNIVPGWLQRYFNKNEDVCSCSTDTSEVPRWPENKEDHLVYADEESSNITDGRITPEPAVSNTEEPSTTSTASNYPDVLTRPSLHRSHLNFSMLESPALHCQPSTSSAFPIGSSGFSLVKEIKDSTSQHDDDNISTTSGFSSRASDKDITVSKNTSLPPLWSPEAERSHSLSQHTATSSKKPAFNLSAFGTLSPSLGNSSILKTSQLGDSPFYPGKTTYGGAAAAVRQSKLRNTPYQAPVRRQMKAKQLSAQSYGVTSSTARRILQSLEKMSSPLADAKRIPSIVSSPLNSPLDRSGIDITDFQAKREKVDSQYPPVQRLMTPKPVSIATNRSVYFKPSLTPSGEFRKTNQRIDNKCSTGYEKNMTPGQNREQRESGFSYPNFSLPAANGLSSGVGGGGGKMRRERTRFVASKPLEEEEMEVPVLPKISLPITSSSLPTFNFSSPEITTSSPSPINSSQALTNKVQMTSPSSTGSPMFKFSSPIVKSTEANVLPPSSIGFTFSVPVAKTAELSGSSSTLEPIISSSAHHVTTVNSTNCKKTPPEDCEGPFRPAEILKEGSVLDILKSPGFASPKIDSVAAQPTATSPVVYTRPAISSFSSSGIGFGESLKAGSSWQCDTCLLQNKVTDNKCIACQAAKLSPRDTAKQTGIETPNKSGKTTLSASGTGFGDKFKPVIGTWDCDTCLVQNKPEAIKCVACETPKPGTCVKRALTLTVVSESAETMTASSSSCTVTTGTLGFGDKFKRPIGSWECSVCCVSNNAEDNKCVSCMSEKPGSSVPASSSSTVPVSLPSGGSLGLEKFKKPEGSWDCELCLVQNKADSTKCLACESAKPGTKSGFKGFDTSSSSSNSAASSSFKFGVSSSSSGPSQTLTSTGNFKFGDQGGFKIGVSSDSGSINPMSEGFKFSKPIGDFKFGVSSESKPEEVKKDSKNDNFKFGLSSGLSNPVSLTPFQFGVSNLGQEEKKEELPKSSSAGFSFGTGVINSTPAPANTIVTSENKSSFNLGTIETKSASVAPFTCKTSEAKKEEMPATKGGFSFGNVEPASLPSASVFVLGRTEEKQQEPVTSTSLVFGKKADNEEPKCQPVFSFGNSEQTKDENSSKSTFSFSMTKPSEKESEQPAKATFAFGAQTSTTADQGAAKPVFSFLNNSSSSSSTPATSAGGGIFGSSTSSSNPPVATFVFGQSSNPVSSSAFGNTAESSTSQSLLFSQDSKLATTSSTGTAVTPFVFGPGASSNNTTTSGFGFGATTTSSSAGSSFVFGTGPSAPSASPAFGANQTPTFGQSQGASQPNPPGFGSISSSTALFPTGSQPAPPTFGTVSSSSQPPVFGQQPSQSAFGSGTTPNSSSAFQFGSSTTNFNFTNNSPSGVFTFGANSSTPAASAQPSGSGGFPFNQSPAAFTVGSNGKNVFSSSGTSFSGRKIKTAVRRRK
# STAT3, P40763, UniProt P40763, whole entry: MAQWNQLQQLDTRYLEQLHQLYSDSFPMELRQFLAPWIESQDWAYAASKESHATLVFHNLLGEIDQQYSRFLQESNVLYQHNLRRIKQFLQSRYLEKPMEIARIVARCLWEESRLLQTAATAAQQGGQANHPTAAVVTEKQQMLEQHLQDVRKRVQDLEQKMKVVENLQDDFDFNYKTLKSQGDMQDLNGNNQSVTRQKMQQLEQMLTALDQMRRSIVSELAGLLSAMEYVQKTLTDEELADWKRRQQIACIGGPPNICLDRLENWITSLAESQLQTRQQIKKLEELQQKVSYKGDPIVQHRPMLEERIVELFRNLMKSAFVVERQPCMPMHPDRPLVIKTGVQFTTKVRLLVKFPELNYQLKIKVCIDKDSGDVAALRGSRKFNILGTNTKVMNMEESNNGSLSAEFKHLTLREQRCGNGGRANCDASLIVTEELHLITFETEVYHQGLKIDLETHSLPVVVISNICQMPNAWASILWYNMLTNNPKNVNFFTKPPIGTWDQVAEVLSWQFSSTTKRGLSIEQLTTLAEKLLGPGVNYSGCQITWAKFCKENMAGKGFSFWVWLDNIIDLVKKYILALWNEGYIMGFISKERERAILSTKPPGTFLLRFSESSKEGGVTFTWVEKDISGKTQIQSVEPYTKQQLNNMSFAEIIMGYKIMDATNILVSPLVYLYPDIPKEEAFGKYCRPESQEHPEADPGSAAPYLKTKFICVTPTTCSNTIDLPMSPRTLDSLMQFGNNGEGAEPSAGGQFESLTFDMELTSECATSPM
# TUBG1, P23258, UniProt P23258, whole entry: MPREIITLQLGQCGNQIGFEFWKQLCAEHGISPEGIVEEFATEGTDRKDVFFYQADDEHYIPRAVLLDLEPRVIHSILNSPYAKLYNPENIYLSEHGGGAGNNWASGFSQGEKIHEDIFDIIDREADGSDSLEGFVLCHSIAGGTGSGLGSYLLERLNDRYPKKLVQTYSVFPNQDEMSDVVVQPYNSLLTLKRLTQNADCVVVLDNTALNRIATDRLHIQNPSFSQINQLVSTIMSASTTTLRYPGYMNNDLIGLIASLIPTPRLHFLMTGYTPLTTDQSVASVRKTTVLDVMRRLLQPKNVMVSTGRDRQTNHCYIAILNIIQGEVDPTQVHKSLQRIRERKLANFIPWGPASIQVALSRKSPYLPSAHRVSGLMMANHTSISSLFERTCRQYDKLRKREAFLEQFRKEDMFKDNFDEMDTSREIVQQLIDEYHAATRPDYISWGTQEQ
# EIF3K, Q9UBQ5, UniProt Q9UBQ5, whole entry: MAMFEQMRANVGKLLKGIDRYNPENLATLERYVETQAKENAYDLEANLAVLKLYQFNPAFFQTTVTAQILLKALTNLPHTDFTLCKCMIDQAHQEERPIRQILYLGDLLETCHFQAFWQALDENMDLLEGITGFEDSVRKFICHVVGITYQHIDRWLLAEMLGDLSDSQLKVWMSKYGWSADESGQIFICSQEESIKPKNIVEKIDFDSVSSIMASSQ
# Some of the results follow. The list holds hits alone, and they repeat only in part.
# Columns and labels:
# Assay in all cases: PRISMA enrichment of interactor (LFQ) in peptide spot vs all other peptide spots (log2 fold change); higher = stronger / more specific binding of the interactor to the peptide
# [1] = biological target: AK4, P27144
# Method: (§1)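 PRISMA: 221 full-length sORF-encoded peptides (3-15 aa), plus SOS1/GLUT1 control peptides, were spot-synthesized on cellulose membranes in triplicate. Membranes were incubated with HEK293T lysate, and bound proteins were identified by LC-MS/MS with LFQ. Enrichment is the log2 fold change versus all other peptide spots; only significant interactors are listed (cutoff c=6, x0=2.8).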
# [2] = biological target: ATP6V1F, Q16864
# Method: as §1
# [3] = biological target: BMP15, O95972
# Method: as §1
# [4] = biological target: CTNND1, O60716
# Method: as §1
# [5] = biological target: DHRS7B, Q6IAN0
# Method: as §1
# [6] = biological target: DIMT1, Q9UNQ2
# Method: as §1
# [7] = biological target: DMD, P11532
# Method: as §1
# [8] = biological target: DUSP3, P51452
# Method: as §1
# [9] = biological target: LARP4, Q71RC2
# Method: as §1
# [10] = biological target: LIG3, P49916
# Method: as §1
# [11] = biological target: MCU, Q8NE86
# Method: as §1
# [12] = biological target: METTL7A, Q9H8H3
# Method: as §1
# [13] = biological target: MICOS13, Q5XKP0
# Method: as §1
# [14] = biological target: MRPL45, Q9BRJ2
# Method: as §1
# [15] = biological target: MRPS35, P82673
# Method: as §1
# [16] = biological target: NAMPT, P43490
# Method: as §1
# [17] = biological target: NECAP2, Q9NVZ3
# Method: as §1
# [18] = biological target: NUBP2, Q9Y5Y2
# Method: as §1
# [19] = biological target: NUP153, P49790
# Method: as §1
# [20] = biological target: NXF1, Q9UBU9
# Method: as §1
# [21] = biological target: ORC4, O43929
# Method: as §1
# [22] = biological target: RCN2, Q14257
# Method: as §1
# [23] = biological target: RELCH, Q9P260
# Method: as §1
# [24] = biological target: SCPEP1, Q9HB40
# Method: as §1
# [25] = biological target: STAT3, P40763
# Method: as §1
# [26] = biological target: TFB1M, Q8WVM0
# Method: as §1
# [27] = biological target: TUBG1, P23258
# Method: as §1
# [28] = biological target: UFL1, O94874
# Method: as §1
# [29] = biological target: YLPM1, P49750
# Method: as §1
# [30] = biological target: AKAP8, O43823
# Method: as §1
# [31] = biological target: ALDH2, P05091
# Method: as §1
# [32] = biological target: ALKBH2, Q6NS38
# Method: as §1
# [33] = biological target: APRT, P07741
# Method: as §1
# [34] = biological target: CAND2, O75155
# Method: as §1
# [35] = biological target: CHCHD2, Q9Y6H1
# Method: as §1
# [36] = biological target: COPS3, Q9UNS2
# Method: as §1
# [37] = biological target: CRACR2B, Q8N4Y2
# Method: as §1
# [38] = biological target: EIF3K, Q9UBQ5
# Method: as §1
# [39] = biological target: EXOC4, Q96A65
# Method: as §1
# [40] = biological target: FAM50A, Q14320
# Method: as §1
# [41] = biological target: HAX1, O00165
# Method: as §1
# [42] = biological target: KIF23, Q02241
# Method: as §1
# [43] = biological target: MRPL44, Q9H9J2
# Method: as §1
# [44] = biological target: NCBP1, Q09161
# Method: as §1
# [45] = biological target: NELFB, Q8WX92
# Method: as §1
# [46] = biological target: PKN1, Q16512
# Method: as §1
# [47] = biological target: PSME3, P61289
# Method: as §1
# [48] = biological target: SMARCB1, Q12824
# Method: as §1
# [49] = biological target: STRN, O43815
# Method: as §1
# [50] = biological target: SUPT6H, Q7KZ85
# Method: as §1
# [51] = biological target: TEX264, Q9Y6I9
# Method: as §1
# [52] = biological target: YIF1A, O95070
# Method: as §1
# [53] = biological target: ZC3H11A, O75152
# Method: as §1
binder,measurement,setting,value
MVISTLLDFKLRS [SMAD1],PRISMA enrichment of interactor (log2),[1],5.84
same,PRISMA enrichment of interactor (log2),[2],4.58
same,PRISMA enrichment of interactor (log2),[3],8.57
same,PRISMA enrichment of interactor (log2),[4],6.07
same,PRISMA enrichment of interactor (log2),[5],4.4
same,PRISMA enrichment of interactor (log2),[6],4.87
same,PRISMA enrichment of interactor (log2),[7],8.24
same,PRISMA enrichment of interactor (log2),[8],5.51
same,PRISMA enrichment of interactor (log2),[9],7.58
same,PRISMA enrichment of interactor (log2),[10],4.16
same,PRISMA enrichment of interactor (log2),[11],6.43
same,PRISMA enrichment of interactor (log2),[12],9.47
same,PRISMA enrichment of interactor (log2),[13],4.21
same,PRISMA enrichment of interactor (log2),[14],11.1
same,PRISMA enrichment of interactor (log2),[15],5.61
same,PRISMA enrichment of interactor (log2),[16],6.52
same,PRISMA enrichment of interactor (log2),[17],3.99
same,PRISMA enrichment of interactor (log2),[18],5.14
same,PRISMA enrichment of interactor (log2),[19],5.19
same,PRISMA enrichment of interactor (log2),[20],5.8
same,PRISMA enrichment of interactor (log2),[21],4.56
same,PRISMA enrichment of interactor (log2),[22],5.74
same,PRISMA enrichment of interactor (log2),[23],5.86
same,PRISMA enrichment of interactor (log2),[24],6.04
same,PRISMA enrichment of interactor (log2),[25],6.33
same,PRISMA enrichment of interactor (log2),[26],4.63
same,PRISMA enrichment of interactor (log2),[27],5.09
same,PRISMA enrichment of interactor (log2),[28],4.53
same,PRISMA enrichment of interactor (log2),[29],4.3
MGVGVTRPELPVSPQ [RPLP0],PRISMA enrichment of interactor (log2),[30],8.73
same,PRISMA enrichment of interactor (log2),[31],5.37
same,PRISMA enrichment of interactor (log2),[32],5.12
same,PRISMA enrichment of interactor (log2),[33],5.52
same,PRISMA enrichment of interactor (log2),[34],4.84
same,PRISMA enrichment of interactor (log2),[35],5.43
same,PRISMA enrichment of interactor (log2),[36],4.36
same,PRISMA enrichment of interactor (log2),[37],4.26
same,PRISMA enrichment of interactor (log2),[8],5.01
same,PRISMA enrichment of interactor (log2),[38],8.67
same,PRISMA enrichment of interactor (log2),[39],3.82
same,PRISMA enrichment of interactor (log2),[40],4.13
same,PRISMA enrichment of interactor (log2),[41],3.66
same,PRISMA enrichment of interactor (log2),[42],4.24
same,PRISMA enrichment of interactor (log2),[43],5.8
same,PRISMA enrichment of interactor (log2),[44],5.48
same,PRISMA enrichment of interactor (log2),[45],4.84
same,PRISMA enrichment of interactor (log2),[46],5.6
same,PRISMA enrichment of interactor (log2),[47],4.64
same,PRISMA enrichment of interactor (log2),[48],7.09
same,PRISMA enrichment of interactor (log2),[49],6.45
same,PRISMA enrichment of interactor (log2),[50],6.51
same,PRISMA enrichment of interactor (log2),[51],5.26
same,PRISMA enrichment of interactor (log2),[52],6.02
same,PRISMA enrichment of interactor (log2),[53],5.86

# Looked up one by one from above:
binder,measurement,setting,value
MVISTLLDFKLRS [SMAD1],PRISMA enrichment of interactor (log2),[2],4.58
same,PRISMA enrichment of interactor (log2),[23],5.86
